The list does not hold the whole screen: it gathers tests that were run many times, whatever their T/C, doses with no T/C, and many T/C values between a quarter and a half above the control. Other doses and runs of a compound stand elsewhere. T/C is the treated group as % of the vehicle group. Some doses have a count of surviving animals in place of a T/C: the source holds a T/C of zero for them, seemingly a mark for toxic or unscored doses. Some doses without a T/C left all or most animals alive at the check, yet need not have been tolerated: survival well below the control is almost never listed, so the zero probably covers shortened survival too. Counts of survivors are from the toxicity check (mostly the fifth day) where no day follows; animals may have died later. Schedules are NCI's codes, read here as Q, the interval in days (D) or hours (H), X, the number of doses. Some doses were run more than once; the values are given in rising order. Some schedule codes hold Z or #, which are not explained here. Where survival is the endpoint, this PubChem deposit counts one and a half times the control or more as active, and values a quarter to a half above the control carry no call in these data; other NCI protocols may use other cut-offs. Some T/C values are followed by the survivors on the day toxicity was checked, most often the fifth; without a count, all were alive then.

In the assay the test system is L1210 leukemia ip in BDF1 mice, survival T/C. The experiment in a line: NCI In Vivo Anticancer Drug Screen. Data for tumor model L1210 Leukemia (intraperitoneal) in B6D2F1 (BDF1) mice. As to conditions: higher T/C = longer survival.
Where [1] appears, read: T/C endpoint: mean survival time, dose: 80.0 mg/kg/injection, schedule: Q01DX001 (ip), vehicle: saline.
[2] abbreviates: T/C endpoint: mean survival time, dose: 200.0 mg/kg/injection, schedule: Q01DX001 (ip), vehicle: saline.
Where [3] appears, read: T/C endpoint: mean survival time, dose: 400.0 mg/kg/injection, schedule: Q01DX001 (ip), vehicle: saline.
The mark [4] stands for this setting: T/C endpoint: mean survival time, dose: 120.0 mg/kg/injection, schedule: Q01DX Z (ip), vehicle: saline.
Where [5] appears, read: T/C endpoint: mean survival time, dose: 400.0 mg/kg/injection, schedule: Q01DX001 (ip), vehicle: saline with Tween-80.

Consider `CCOC(=O)Nc1cc(NC(c2ccccc2)c2ccccc2)c2[nH]cnc2n1`, for which the T/C (T/C endpoint: mean survival time, dose: 20.0 mg/kg/injection, schedule: Q01DX009 (ip), vehicle: other) is 135 % of control [5 of 6 alive]; the T/C (T/C endpoint: mean survival time, dose: 40.0 mg/kg/injection, schedule: Q01DX001 (ip), vehicle: other) was 148 % of control; the T/C (T/C endpoint: mean survival time, dose: 80.0 mg/kg/injection, schedule: Q01DX001 (ip), vehicle: steroid suspending solution) is 132 % of control. In addition, the survivor count was 0 of 6 (T/C endpoint: mean survival time, dose: 30.0 mg/kg/injection, schedule: Q01DX009 (ip), vehicle: other); 0 of 6 (T/C endpoint: mean survival time, dose: 45.0 mg/kg/injection, schedule: Q01DX009 (ip), vehicle: other); 0 of 6 (T/C endpoint: mean survival time, dose: 67.0 mg/kg/injection, schedule: Q01DX009 (ip), vehicle: other); 2 of 6 (T/C endpoint: mean survival time, dose: 70.0 mg/kg/injection, schedule: Q01DX001 (ip), vehicle: other); 0 of 6 (T/C endpoint: mean survival time, dose: 80.0 mg/kg/injection, schedule: Q01DX001 (ip), vehicle: other); 0 of 6 (T/C endpoint: mean survival time, dose: 200.0 mg/kg/injection, schedule: Q01DX001 (ip), vehicle: other). Also, the survivor count (T/C endpoint: mean survival time, dose: 400.0 mg/kg/injection, schedule: Q01DX001 (ip), vehicle: other) was 0 of 6.
On to `CC(C)CN=C(N)CSS(=O)(=O)O`, for which the survivor count reads like this: (T/C endpoint: mean survival time, dose: 100.0 mg/kg/injection, schedule: Q04DX002 (ip), vehicle: Klucel (hydroxypropylcellulose) (HPC)) 1 of 3; (T/C endpoint: mean survival time, dose: 400.0 mg/kg/injection, schedule: Q04DX002 (ip), vehicle: Klucel (hydroxypropylcellulose) (HPC)) 0 of 3.
Turning to `CC1CCCC[N-]1.CC1CCCC[N-]1.N#C[S-].N#C[S-].[Cu]` (stereo not drawn), the survivor count by setting is: under setting [1], 1 of 4; (T/C endpoint: mean survival time, dose: 100.0 mg/kg/injection, schedule: Q01DX001 (ip), vehicle: saline) 1 of 4; under setting [2], 0 of 4; under setting [3], 0 of 4.
In the case of `NC(N)=N/N=C/c1ccccc1F`, the survivor count by setting is: (T/C endpoint: mean survival time, dose: 60.0 mg/kg/injection, schedule: Q01DX Z (ip), vehicle: saline) 0 of 6; under setting [4], 0 of 6.
Regarding `C[CH2][Ge]([CH2]C)[CH2]C.C[CH2][Ge]([CH2]C)[CH2]C`, the survivor count under setting [5] is on record as 5 of 6.
As to `CCOCN(C)C`, under “T/C endpoint: mean survival time, dose: 100.0 mg/kg/injection, schedule: Q01DX009 (ip), vehicle: saline”, the T/C is 128 % of control. The survivor count (T/C endpoint: mean survival time, dose: 150.0 mg/kg/injection, schedule: Q01DX009 (ip), vehicle: saline) is 3 of 6; the survivor count under setting [2] was 6 of 6; the survivor count under setting [3] is listed as 0 of 6.
With `Clc1ccnc2c1ccc1c(Cl)ccnc12`, the survivor count is 0 of 4 (T/C endpoint: mean survival time, dose: 100.0 mg/kg/injection, schedule: Q01DX001 (ip), vehicle: carboxymethylcellulose (CMC)); 0 of 4 (T/C endpoint: mean survival time, dose: 200.0 mg/kg/injection, schedule: Q01DX001 (ip), vehicle: carboxymethylcellulose (CMC)); 0 of 4 (T/C endpoint: mean survival time, dose: 400.0 mg/kg/injection, schedule: Q01DX001 (ip), vehicle: carboxymethylcellulose (CMC)).
As to `OC(C[n+]1ccsc1)c1ccccc1` (stereo not drawn), for the setting “T/C endpoint: mean survival time, dose: 300.0 mg/kg/injection, schedule: Q01DX001 (ip), vehicle: saline”, the survivor count is 0 of 6.
Consider `CC(=O)OC1c2sccc2Cc2ccsc21`, for which the survivor count under setting [5] is 3 of 3.
For `NC(N)=N/N=C\c1ccc2c(c1)OCO2`, the survivor count reads like this: under setting [4], 0 of 6; (T/C endpoint: mean survival time, dose: 240.0 mg/kg/injection, schedule: Q01DX Z (oral), vehicle: saline) 0 of 6.
For `Nc1nc(N)nc(CCN2CCCCC2)n1`, the survivor count (T/C endpoint: mean survival time, dose: 100.0 mg/kg/injection, schedule: Q01DX001 (ip), vehicle: saline with Tween-80) is reported as 0 of 3; the survivor count (T/C endpoint: mean survival time, dose: 200.0 mg/kg/injection, schedule: Q01DX001 (ip), vehicle: saline with Tween-80) is given as 0 of 3; the survivor count under setting [5] is recorded as 0 of 3.
Turning to `COc1cccc2c1C(=O)c1c(O)c3c(c(O)c1C2=O)C[C@@](O)(C(C)=O)C[C@@H]3OC1CC(NC(C)=O)C(O)C(C)O1` (stereo partly drawn), the T/C is, setting by setting: (T/C endpoint: mean survival time, dose: 15.0 mg/kg/injection, schedule: Q01DX009 (ip), vehicle: saline) 125 % of control; (T/C endpoint: mean survival time, dose: 20.0 mg/kg/injection, schedule: Q01DX009 (ip), vehicle: propolene glycol) 135 % of control; (T/C endpoint: mean survival time, dose: 30.0 mg/kg/injection, schedule: Q01DX009 (ip), vehicle: saline) 130 % of control; (T/C endpoint: mean survival time, dose: 40.0 mg/kg/injection, schedule: Q01DX009 (ip), vehicle: propolene glycol) 135 % of control; under setting [1], 127 % of control; (T/C endpoint: mean survival time, dose: 80.0 mg/kg/injection, schedule: Q01DX009 (ip), vehicle: propolene glycol) 135 % of control. The T/C was 135 % of control (T/C endpoint: median survival time, dose: 150.0 mg/kg/injection, schedule: Q01DX001 (ip), vehicle: propolene glycol, evaluated on day 5); 133 % of control (T/C endpoint: median survival time, dose: 150.0 mg/kg/injection, schedule: Q01DX001 (ip), vehicle: propolene glycol, evaluated on day 30); 139 % of control (T/C endpoint: median survival time, dose: 300.0 mg/kg/injection, schedule: Q01DX001 (ip), vehicle: propolene glycol, evaluated on day 5); 133 % of control (T/C endpoint: median survival time, dose: 300.0 mg/kg/injection, schedule: Q01DX001 (ip), vehicle: propolene glycol, evaluated on day 30). Moreover, the survivor count (T/C endpoint: mean survival time, dose: 160.0 mg/kg/injection, schedule: Q01DX009 (ip), vehicle: propolene glycol) is 6 of 6.
With `CCOC(=O)c1ccc(NC(=O)Oc2ccc(-c3ccccc3)cc2)cc1`, the survivor count is listed as 6 of 6 (T/C endpoint: mean survival time, dose: 100.0 mg/kg/injection, schedule: Q04DX003 (ip), vehicle: saline with Tween-80); 6 of 6 (T/C endpoint: mean survival time, dose: 200.0 mg/kg/injection, schedule: Q04DX003 (ip), vehicle: saline with Tween-80); 3 of 3 (T/C endpoint: mean survival time, dose: 400.0 mg/kg/injection, schedule: Q04DX002 (ip), vehicle: saline with Tween-80); 6 of 6 (T/C endpoint: mean survival time, dose: 400.0 mg/kg/injection, schedule: Q04DX003 (ip), vehicle: saline with Tween-80).
Consider `CC(C)(O)C(=O)N/N=C/c1ccc(Cl)cc1Cl`, for which the survivor count (T/C endpoint: mean survival time, dose: 50.0 mg/kg/injection, schedule: Q01DX009 (ip), vehicle: saline with Tween-80) is given as 2 of 6; the survivor count (T/C endpoint: mean survival time, dose: 100.0 mg/kg/injection, schedule: Q01DX009 (ip), vehicle: saline with Tween-80) is 1 of 6 and 2 of 6; the survivor count (T/C endpoint: mean survival time, dose: 200.0 mg/kg/injection, schedule: Q01DX009 (ip), vehicle: saline with Tween-80) is reported as 0 of 6; the survivor count (T/C endpoint: mean survival time, dose: 400.0 mg/kg/injection, schedule: Q01DX009 (ip), vehicle: saline with Tween-80) is given as 0 of 6.
As for `ClC1=C(Cl)C2(Cl)C3COCC3C1(Cl)C2(Cl)Cl` (stereo not drawn), the survivor count (T/C endpoint: mean survival time, dose: 400.0 mg/kg/injection, schedule: Q04DX003 (ip), vehicle: Klucel (hydroxypropylcellulose) (HPC)) is listed as 6 of 6.
For `N#CCN1CCCCCC1`, the survivor count is, setting by setting: (T/C endpoint: mean survival time, dose: 20.0 mg/kg/injection, schedule: Q01DX009 (ip), vehicle: Klucel (hydroxypropylcellulose) (HPC)) 3 of 6; (T/C endpoint: mean survival time, dose: 40.0 mg/kg/injection, schedule: Q04DX003 (ip), vehicle: Klucel (hydroxypropylcellulose) (HPC)) 0 of 6.
Regarding `CC(C)(C)C(=O)CC(=O)C(C)(C)C.CC(C)(C)C(=O)CC(=O)C(C)(C)C.[Cu]`, the survivor count (T/C endpoint: mean survival time, dose: 75.0 mg/kg/injection, schedule: Q04DX003 (ip), vehicle: saline with Tween-80) is listed as 5 of 6; the survivor count (T/C endpoint: mean survival time, dose: 150.0 mg/kg/injection, schedule: Q04DX003 (ip), vehicle: saline with Tween-80) is 0 of 6; the survivor count (T/C endpoint: mean survival time, dose: 300.0 mg/kg/injection, schedule: Q01DX001 (ip), vehicle: other) was 2 of 6; the survivor count (T/C endpoint: mean survival time, dose: 300.0 mg/kg/injection, schedule: Q04DX003 (ip), vehicle: saline with Tween-80) is 1 of 6.
Turning to `O=C(NC(=S)Nc1ccccn1)c1ccccc1`, the survivor count is listed as 3 of 3 (T/C endpoint: mean survival time, dose: 100.0 mg/kg/injection, schedule: Q04DX002 (ip), vehicle: other) and 2 of 3 (T/C endpoint: mean survival time, dose: 400.0 mg/kg/injection, schedule: Q04DX002 (ip), vehicle: other).
Regarding `CCOC(=O)C(C#N)C(C(C)=O)C(=O)OCC` (stereo not drawn), the survivor count (T/C endpoint: mean survival time, dose: 200.0 mg/kg/injection, schedule: Q04DX003 (ip), vehicle: saline sonified) was 3 of 6 and the survivor count (T/C endpoint: mean survival time, dose: 400.0 mg/kg/injection, schedule: Q04DX003 (ip), vehicle: saline sonified) was 4 of 6.
